Experimental data from the supplement of paper PMC11006884.
This list holds what a sample rich in targets with a hit left over. This is a noisy data set. The entries are a selection whose mix differs from that of the whole data set.

By UniProt entry, the sequences of proteins in these tests, tags left out. Where a name states a change or a piece, a line headed by the entry shows the natural chain unless it says otherwise.
UniProt O75127: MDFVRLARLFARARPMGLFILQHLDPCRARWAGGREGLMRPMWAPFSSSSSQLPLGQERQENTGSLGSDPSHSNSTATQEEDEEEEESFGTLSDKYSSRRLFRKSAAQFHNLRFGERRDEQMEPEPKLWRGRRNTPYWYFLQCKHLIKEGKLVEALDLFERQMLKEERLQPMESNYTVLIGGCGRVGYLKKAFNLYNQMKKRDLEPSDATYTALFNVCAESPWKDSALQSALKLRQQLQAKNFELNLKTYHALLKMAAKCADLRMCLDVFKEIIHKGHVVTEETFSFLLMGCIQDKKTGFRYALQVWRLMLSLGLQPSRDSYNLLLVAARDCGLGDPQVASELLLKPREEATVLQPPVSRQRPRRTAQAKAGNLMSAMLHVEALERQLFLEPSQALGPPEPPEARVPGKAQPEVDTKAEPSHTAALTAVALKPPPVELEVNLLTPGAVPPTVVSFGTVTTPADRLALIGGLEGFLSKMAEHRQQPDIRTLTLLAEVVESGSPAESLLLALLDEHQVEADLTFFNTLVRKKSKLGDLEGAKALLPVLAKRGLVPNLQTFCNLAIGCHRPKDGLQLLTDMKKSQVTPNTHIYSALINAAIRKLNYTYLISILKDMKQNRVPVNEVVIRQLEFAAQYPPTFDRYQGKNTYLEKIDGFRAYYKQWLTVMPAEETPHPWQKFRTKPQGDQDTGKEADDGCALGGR
UniProt O60232: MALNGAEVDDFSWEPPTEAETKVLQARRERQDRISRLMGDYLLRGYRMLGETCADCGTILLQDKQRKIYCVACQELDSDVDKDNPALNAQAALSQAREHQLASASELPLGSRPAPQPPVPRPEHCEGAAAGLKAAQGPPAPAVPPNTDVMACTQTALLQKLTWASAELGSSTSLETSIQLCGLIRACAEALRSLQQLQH
UniProt O43837: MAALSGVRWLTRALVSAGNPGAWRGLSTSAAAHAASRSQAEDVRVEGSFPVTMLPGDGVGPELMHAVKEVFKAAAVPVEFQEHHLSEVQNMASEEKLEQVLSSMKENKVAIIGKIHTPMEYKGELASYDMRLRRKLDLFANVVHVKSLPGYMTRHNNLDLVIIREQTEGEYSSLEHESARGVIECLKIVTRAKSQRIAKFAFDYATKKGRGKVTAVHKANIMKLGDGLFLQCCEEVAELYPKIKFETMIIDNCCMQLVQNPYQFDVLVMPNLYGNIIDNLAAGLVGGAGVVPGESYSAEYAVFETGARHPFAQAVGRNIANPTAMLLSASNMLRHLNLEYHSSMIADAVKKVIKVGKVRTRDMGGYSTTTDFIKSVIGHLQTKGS
UniProt O60216: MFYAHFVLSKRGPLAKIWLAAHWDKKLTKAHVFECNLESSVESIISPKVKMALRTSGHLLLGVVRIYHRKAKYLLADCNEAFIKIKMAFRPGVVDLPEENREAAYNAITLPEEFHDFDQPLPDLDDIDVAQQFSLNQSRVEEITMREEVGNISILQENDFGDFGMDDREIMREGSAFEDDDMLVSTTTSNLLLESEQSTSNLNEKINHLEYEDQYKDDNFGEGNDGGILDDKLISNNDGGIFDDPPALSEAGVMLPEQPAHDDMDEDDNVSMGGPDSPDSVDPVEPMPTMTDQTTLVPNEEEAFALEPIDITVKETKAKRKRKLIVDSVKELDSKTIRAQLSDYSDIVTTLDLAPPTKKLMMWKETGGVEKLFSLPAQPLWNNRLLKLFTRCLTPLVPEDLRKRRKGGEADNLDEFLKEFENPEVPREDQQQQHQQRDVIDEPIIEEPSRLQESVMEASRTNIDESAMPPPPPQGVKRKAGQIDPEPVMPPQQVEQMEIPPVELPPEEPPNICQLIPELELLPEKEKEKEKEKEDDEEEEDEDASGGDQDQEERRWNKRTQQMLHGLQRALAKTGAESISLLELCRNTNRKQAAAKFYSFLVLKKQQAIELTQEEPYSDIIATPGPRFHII
UniProt O75934: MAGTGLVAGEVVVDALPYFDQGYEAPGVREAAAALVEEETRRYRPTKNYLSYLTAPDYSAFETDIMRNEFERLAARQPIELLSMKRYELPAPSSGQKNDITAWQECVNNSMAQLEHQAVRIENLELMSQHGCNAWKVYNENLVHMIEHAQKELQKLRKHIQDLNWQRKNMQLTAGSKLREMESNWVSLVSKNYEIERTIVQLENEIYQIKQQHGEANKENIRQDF
UniProt O75818: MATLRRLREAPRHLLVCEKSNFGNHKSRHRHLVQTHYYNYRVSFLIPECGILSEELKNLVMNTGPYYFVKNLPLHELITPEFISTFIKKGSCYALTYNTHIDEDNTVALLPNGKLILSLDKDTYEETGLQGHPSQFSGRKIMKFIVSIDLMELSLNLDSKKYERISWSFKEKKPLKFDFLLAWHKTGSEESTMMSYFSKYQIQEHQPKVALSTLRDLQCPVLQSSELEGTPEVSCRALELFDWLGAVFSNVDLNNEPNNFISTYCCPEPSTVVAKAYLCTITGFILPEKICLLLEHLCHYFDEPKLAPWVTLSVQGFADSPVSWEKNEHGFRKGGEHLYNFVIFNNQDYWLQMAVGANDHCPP
UniProt O75150, whole entry, looked up: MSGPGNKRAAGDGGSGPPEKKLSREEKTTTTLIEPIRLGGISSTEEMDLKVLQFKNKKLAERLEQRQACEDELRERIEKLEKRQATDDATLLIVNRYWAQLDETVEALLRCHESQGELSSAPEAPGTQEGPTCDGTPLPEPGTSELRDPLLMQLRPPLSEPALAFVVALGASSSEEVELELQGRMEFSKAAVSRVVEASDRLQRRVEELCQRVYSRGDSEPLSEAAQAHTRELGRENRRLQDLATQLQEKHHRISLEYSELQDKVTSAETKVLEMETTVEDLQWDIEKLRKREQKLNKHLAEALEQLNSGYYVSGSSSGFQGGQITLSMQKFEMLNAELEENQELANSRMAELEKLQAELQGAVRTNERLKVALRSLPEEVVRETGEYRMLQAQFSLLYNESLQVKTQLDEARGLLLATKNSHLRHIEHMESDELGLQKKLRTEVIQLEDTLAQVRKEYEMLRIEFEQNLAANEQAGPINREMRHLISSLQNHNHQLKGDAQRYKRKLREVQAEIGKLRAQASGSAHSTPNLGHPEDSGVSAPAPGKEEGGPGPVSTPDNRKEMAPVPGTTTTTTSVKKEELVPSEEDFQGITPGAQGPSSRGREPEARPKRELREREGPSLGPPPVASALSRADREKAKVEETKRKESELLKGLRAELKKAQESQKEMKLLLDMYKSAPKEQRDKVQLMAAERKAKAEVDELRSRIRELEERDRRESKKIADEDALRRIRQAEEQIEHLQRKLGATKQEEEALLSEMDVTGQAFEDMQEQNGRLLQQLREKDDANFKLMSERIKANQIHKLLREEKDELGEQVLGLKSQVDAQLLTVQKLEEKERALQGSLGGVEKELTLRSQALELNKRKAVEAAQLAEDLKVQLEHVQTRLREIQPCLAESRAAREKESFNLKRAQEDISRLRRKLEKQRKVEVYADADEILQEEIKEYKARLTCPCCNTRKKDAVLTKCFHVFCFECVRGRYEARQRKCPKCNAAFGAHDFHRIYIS
UniProt O43432, whole entry, looked up: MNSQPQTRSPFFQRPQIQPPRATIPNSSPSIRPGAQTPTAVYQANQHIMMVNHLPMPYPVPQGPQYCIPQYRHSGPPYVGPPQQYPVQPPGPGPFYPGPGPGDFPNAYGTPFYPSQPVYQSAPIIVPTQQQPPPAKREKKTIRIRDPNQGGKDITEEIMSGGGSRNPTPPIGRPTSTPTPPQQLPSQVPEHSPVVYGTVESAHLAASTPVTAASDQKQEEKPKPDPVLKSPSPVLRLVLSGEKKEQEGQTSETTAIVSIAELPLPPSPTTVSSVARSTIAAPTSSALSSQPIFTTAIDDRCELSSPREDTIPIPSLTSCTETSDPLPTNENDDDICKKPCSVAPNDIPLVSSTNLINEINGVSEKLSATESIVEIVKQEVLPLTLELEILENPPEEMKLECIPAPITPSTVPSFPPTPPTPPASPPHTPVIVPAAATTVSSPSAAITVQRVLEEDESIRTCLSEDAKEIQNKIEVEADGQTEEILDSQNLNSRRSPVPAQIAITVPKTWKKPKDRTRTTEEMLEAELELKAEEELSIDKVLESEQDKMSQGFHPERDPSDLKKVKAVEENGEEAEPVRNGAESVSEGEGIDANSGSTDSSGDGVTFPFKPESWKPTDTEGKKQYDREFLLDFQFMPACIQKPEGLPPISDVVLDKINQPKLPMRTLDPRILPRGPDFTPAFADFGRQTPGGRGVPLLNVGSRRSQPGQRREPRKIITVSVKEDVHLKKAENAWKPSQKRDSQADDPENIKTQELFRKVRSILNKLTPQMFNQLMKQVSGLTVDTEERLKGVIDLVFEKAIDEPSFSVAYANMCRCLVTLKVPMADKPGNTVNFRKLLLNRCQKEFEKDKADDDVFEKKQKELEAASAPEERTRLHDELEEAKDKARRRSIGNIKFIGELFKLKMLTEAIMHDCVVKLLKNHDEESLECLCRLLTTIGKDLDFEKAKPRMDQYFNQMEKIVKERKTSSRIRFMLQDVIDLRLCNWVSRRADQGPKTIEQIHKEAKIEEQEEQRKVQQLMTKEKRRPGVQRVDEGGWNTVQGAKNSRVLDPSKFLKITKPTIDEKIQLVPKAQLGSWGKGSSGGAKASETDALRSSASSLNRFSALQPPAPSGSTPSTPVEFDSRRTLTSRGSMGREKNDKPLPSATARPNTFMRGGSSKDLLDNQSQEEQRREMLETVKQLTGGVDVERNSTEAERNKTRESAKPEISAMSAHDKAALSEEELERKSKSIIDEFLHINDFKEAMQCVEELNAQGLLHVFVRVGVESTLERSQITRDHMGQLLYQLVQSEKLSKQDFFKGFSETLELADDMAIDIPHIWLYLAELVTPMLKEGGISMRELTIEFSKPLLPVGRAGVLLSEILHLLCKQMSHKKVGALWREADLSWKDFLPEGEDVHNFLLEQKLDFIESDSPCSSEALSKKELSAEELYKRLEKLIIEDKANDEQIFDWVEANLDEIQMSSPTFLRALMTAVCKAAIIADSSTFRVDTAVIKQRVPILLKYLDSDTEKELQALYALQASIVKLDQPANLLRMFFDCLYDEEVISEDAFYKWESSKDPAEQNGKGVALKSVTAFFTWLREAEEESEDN
UniProt O75828: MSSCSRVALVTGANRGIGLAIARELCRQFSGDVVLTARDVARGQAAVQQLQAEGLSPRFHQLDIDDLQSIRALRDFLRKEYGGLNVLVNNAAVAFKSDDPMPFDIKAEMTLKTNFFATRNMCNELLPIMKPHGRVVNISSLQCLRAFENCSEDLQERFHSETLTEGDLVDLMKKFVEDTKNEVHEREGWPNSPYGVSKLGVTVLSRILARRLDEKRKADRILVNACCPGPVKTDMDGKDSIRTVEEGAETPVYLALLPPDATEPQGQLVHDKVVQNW
UniProt O60763: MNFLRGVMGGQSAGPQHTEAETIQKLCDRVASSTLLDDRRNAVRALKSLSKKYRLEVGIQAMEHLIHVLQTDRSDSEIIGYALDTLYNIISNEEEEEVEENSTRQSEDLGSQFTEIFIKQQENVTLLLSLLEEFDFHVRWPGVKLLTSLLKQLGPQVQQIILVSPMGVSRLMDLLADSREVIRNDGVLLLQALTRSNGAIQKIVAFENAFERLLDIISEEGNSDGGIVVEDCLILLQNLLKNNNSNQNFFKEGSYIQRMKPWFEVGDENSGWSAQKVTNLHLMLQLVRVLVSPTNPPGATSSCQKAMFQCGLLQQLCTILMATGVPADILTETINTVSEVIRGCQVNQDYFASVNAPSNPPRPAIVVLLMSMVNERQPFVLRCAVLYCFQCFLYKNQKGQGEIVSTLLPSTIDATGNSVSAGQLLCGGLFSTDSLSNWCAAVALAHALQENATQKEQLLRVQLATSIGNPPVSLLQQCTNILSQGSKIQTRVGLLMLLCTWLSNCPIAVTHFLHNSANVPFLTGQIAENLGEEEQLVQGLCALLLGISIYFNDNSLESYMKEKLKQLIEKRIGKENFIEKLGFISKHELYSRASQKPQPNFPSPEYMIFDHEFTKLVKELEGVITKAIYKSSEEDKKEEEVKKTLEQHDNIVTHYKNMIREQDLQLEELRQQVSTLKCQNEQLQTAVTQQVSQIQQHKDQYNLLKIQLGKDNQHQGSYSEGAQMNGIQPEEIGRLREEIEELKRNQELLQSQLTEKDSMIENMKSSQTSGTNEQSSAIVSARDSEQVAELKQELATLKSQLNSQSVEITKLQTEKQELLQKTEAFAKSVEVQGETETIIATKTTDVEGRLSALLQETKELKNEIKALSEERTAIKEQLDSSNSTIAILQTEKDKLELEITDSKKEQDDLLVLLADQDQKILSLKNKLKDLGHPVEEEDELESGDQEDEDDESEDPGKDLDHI
UniProt O75663: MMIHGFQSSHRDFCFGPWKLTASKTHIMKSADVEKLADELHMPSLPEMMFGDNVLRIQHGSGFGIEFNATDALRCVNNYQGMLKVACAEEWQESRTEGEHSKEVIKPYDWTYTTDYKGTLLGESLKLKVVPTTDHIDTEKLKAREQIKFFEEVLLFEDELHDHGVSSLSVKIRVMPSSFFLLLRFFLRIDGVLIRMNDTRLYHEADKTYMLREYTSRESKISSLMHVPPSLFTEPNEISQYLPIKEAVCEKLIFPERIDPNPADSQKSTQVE

Compound: COC(=O)/C=C/c1ccccc1 [methyl cinnamate]
Assay: log2 ratio of iodoacetamide-alkyne labeling of the cysteine site, DMSO over compound (competition); higher = stronger covalent engagement of the cysteine by the compound, active = 1 or more
Conditions: 500 µM; treatment time 1 h; system: HEK293T cell lysate
How it was run: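 Reporter intensities give each cysteine's log2 competition ratio as the mean of control channels over the mean of compound channels. The samples were HEK293T lysate (2 mg/mL) given vehicle or electrophile (500 µM, 1 h, ambient temperature), then iodoacetamide alkyne (1 h), followed by click coupling to sCIP-TMT reagents, pooling, trypsin digestion overnight at 37 °C, streptavidin enrichment, acid elution, Orbitrap Eclipse LC-MS/MS with FAIMS and FragPipe quantification. Duplicate channels and three replicates were run, and cysteines quantified in only one replicate were discarded.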

log2 ratio of iodoacetamide-alkyne labeling, inactive:
UniProt O75582_C214 0.59
AKAP8 C139 (UniProt O43823) 0.135
ERAL1 C278 (UniProt O75616) -0.0121
RRP9 C399 (UniProt O43818) -0.0182
ZNF292 C1564 (UniProt O60281) 0.202
PTCD1 C183 (UniProt O75127) 0.104
CLPX C586 (UniProt O76031) -0.177
UniProt O60232_C152 0.394
UniProt O75153_C153 0.109
IDH3B C233 (UniProt O43837) 0.277
SF3B1 C677 (UniProt O75533) -0.125
RAD21 C392 (UniProt O60216) 0.163
UniProt O75934_C106 0.0549
CUTA C96 (UniProt O60888) -0.0692
RPP40 C49 (UniProt O75818) -0.146
RNF40 C950 (UniProt O75150) 0.385
FLNB C455 (UniProt O75369) 0.432
HNRNPR C99 (UniProt O43390) 0.182
NBN C478 (UniProt O60934) 0.378
UniProt O43432_C1411 -0.132
OFD1 C581 (UniProt O75665) -0.046
CBR3 C143 (UniProt O75828) -0.0682
USO1 C303 (UniProt O60763) 0.319
SNRNP200 C502 (UniProt O75643) 0.0312
RIPK2 C7 (UniProt O43353) 0.181
UniProt O60232_C56 0.123
UniProt O75521_C380 0.15
GSTZ1 C205 (UniProt O43708) 0.229
WDHD1 C1008 (UniProt O75717) 0.143
MYO1B C310 (UniProt O43795) 0.0221
TIPRL C87 (UniProt O75663) 0.123
RAD21 C585 (UniProt O60216) 0.0722
ROCK2 C428 (UniProt O75116) 0.166
UniProt O43776_C452 -0.00239
UniProt O60664_C341 0.00943
OPA1 C551 (UniProt O60313) -0.068
PLOD3 C494 (UniProt O60568) 0.114

For reference, some entries already given:
log2 ratio of iodoacetamide-alkyne labeling, inactive:
UniProt O75582_C214 0.59
AKAP8 C139 (UniProt O43823) 0.135
